The target of one data set is T1, YTHDF1 YTH domain (UniProt Q9BYJ9).
T1 sequence (looked up): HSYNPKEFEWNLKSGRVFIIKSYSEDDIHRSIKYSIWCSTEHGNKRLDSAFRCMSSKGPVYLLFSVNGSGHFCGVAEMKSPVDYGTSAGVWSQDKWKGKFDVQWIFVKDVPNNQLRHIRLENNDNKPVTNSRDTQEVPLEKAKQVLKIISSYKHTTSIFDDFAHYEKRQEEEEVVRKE
Kind of data set: FP. Particulars: specific binding to m6A-RNA stated in p283; purified recombinant protein; protein details: N-terminal His-tag (pET28a), E. coli BL21(DE3); label: 5'-FAM; variant of FAM-m6A-RNA.

The next data set addresses T2, YTHDC2 YTH domain (UniProt Q9H6S0).
T2 sequence (looked up): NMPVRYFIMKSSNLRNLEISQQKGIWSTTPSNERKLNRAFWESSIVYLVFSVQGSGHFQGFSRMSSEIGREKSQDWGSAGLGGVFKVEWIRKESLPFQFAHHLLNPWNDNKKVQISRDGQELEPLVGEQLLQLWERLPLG
Kind of data set: FP. The settings on record: m6A at position 8; Kd higher than for other YTH domains; purified recombinant protein; protein details: N-terminal His-tag (pET28a), E. coli BL21(DE3); label: 5'-FAM.

The comparison behind a weaker result is the experiment's own reference, which may not be listed here. Tags and fusion partners may be left off the protein sequences shown.

For the sequence GAACCGGACUGUCUUA [FAM-A-RNA], in the data set with YTHDF1 YTH domain, the binding result is recorded as “binds more weakly”.
Regarding GAACCGGACUGUCUUA [FAM-m6A-RNA], in the data set with YTHDC2 YTH domain, the binding result was “binds more weakly”.
